According to patent publication US20210355235A1, “Compositions and Methods For Treating Cancer with Anti-Renalase antibodies and Anti-PD1 antibodies” (YALE UNIVERSITY, priority 2017, published 2021):
Results are given in words; binding and its absence hold for the method and conditions named. Some entries that bind do so weakly or less than the wild type.

Amino acid sequences for entries named in this document (tags omitted). A change or cut given only in a name is not applied to a line headed by its entry.
UniProt Q5VYX0: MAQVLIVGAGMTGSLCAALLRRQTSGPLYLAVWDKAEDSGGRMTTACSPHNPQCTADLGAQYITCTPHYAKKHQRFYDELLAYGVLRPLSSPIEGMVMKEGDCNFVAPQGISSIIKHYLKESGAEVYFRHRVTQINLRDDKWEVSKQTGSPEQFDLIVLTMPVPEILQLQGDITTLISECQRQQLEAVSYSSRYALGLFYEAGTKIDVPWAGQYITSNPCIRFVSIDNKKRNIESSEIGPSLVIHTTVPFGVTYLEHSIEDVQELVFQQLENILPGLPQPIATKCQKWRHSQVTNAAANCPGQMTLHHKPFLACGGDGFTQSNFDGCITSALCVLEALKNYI

Target: human renalase-1 (Homo sapiens) (UniProt Q5VYX0)
Experiment: SPR, Biacore T100

B1: anti-renalase monoclonal antibody 1D-28-4 (antibody, V domains shown)
VH: QSVEESGGRLVTPGTPLTLTCTVSGFSLSSFAVGWVRQAPGKGLEYIGIISSVGITRYASWAAGRFTISKTSTTVDLKITSPTTEDTATYFCARYGYSGDVNRLDLWGQGTLVTVSS
VL: AQVLTQTASPVSAAVGGTVTINCQASQSVYDNNNLAWYQQKPGQPPKQLIYGASTLASGVSSRFKGSGSGTQFTLTISGVQCDDAATYYCLGEFSCSSADCFAFGGGTEVVVKG
  binding: binds
